Values from PubChem BioAssay AID1224828 (NIAID, 2016)
Assay: 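Knock-downs that increase or decrease LPS-induced p65 nuclear translocation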 (primary screen). Cells: mouse RAW264.7 G9 macrophage reporter cells (GFP-p65, Tnf promoter-mCherry). Reagent: siRNA pool against mouse genes, 100 nM. Time to read-out: 2 days siRNA transfection, then 40 min LPS before fixation. Treatment: LPS (Salmonella minnesota R595) at 10 ng/ml. Measurement: 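Microscopy ratio of nuclear to perinuclear-ring GFP-p65 signal, scaled to the plate median; gene score is the average of two replicate robust z-scores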. Reading the numbers: p65 translocation robust z-score: higher = more nuclear NF-kappaB p65 after LPS than the plate median; nuclear/cytoplasmic p65 ratio: higher = more nuclear NF-kappaB p65. Hit rule: 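Active if robust z is above 3.3 (negative regulators) or below -1.56, the Tlr4 control median (positive regulators); activity score 50 or more; control wells not called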. Meaning of the calls: active = hit (p65 shift raised or lowered); inactive = no clear change.
The deposit covers about 17,000 reagents; this is a part drawn at random. Over the whole deposit, 762 (4.5%) are marked active. 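Active calls include both raised and lowered p65 entry, mostly lowered; wells with fewer than 50 cells lack a z-score.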 The raw values are shown without normalisation. A number with no mark means an inactive call. The numbers tell different reagents against one gene apart. No sequences are given here.

Mdh1 (GeneID 17449)
- nuclear/cytoplasmic p65 ratio, rep 1: 1.72
- nuclear/cytoplasmic p65 ratio, rep 2: 1.58
- low cell count flag: fewer than 50 cells per well; well left out of scoring

Fbxo36 (GeneID 66153)
- p65 translocation robust z-score: -0.21
- nuclear/cytoplasmic p65 ratio, rep 1: 1.61
- nuclear/cytoplasmic p65 ratio, rep 2: 1.39
- low cell count flag: enough cells to score

Ubp1 (GeneID 22221)
- p65 translocation robust z-score: -0.15
- nuclear/cytoplasmic p65 ratio, rep 1: 1.39
- nuclear/cytoplasmic p65 ratio, rep 2: 1.21
- low cell count flag: enough cells to score

Or10g1b (GeneID 258268)
- p65 translocation robust z-score: 2.1
- nuclear/cytoplasmic p65 ratio, rep 1: 1.96
- nuclear/cytoplasmic p65 ratio, rep 2: 1.67
- low cell count flag: enough cells to score

Dpp8 (GeneID 74388)
- p65 translocation robust z-score: 0.9
- nuclear/cytoplasmic p65 ratio, rep 1: 1.5
- nuclear/cytoplasmic p65 ratio, rep 2: 1.48
- low cell count flag: enough cells to score

Nln (GeneID 75805)
- p65 translocation robust z-score: -0.75
- nuclear/cytoplasmic p65 ratio, rep 1: 1.39
- nuclear/cytoplasmic p65 ratio, rep 2: 1.28
- low cell count flag: enough cells to score

Slc37a2 (GeneID 56857)
- p65 translocation robust z-score: 0.32
- nuclear/cytoplasmic p65 ratio, rep 1: 1.44
- nuclear/cytoplasmic p65 ratio, rep 2: 1.29
- low cell count flag: enough cells to score

Polb (GeneID 18970)
- p65 translocation robust z-score: -0.28
- nuclear/cytoplasmic p65 ratio, rep 1: 1.41
- nuclear/cytoplasmic p65 ratio, rep 2: 1.42
- low cell count flag: enough cells to score

Ddx27 (GeneID 228889)
- p65 translocation robust z-score: 0.5
- nuclear/cytoplasmic p65 ratio, rep 1: 1.61
- nuclear/cytoplasmic p65 ratio, rep 2: 1.66
- low cell count flag: enough cells to score

Wscd1 (GeneID 216881)
- p65 translocation robust z-score: -0.43
- nuclear/cytoplasmic p65 ratio, rep 1: 1.42
- nuclear/cytoplasmic p65 ratio, rep 2: 1.88
- low cell count flag: enough cells to score

Plxna4 (GeneID 243743)
- nuclear/cytoplasmic p65 ratio, rep 1: 1.19
- nuclear/cytoplasmic p65 ratio, rep 2: 1.62
- low cell count flag: fewer than 50 cells per well; well left out of scoring

Ubr1 (GeneID 22222)
- p65 translocation robust z-score: 0.72
- nuclear/cytoplasmic p65 ratio, rep 1: 1.67
- nuclear/cytoplasmic p65 ratio, rep 2: 1.55
- low cell count flag: enough cells to score

Fhl1 (GeneID 14199)
- p65 translocation robust z-score: -0.99
- nuclear/cytoplasmic p65 ratio, rep 1: 1.11
- nuclear/cytoplasmic p65 ratio, rep 2: 1.35
- low cell count flag: enough cells to score

St8sia1 (GeneID 20449) #1
- p65 translocation robust z-score: -0.03
- nuclear/cytoplasmic p65 ratio, rep 1: 1.42
- nuclear/cytoplasmic p65 ratio, rep 2: 1.25
- low cell count flag: enough cells to score

St8sia1 (GeneID 20449) #2
- p65 translocation robust z-score: 0.91
- nuclear/cytoplasmic p65 ratio, rep 1: 1.51
- nuclear/cytoplasmic p65 ratio, rep 2: 1.71
- low cell count flag: enough cells to score

Quoted from above, 2 entries:
Plxna4 (GeneID 243743)
- nuclear/cytoplasmic p65 ratio, rep 1: 1.19
- nuclear/cytoplasmic p65 ratio, rep 2: 1.62
- low cell count flag: fewer than 50 cells per well; well left out of scoring

Ubr1 (GeneID 22222)
- p65 translocation robust z-score: 0.72
- nuclear/cytoplasmic p65 ratio, rep 1: 1.67
- nuclear/cytoplasmic p65 ratio, rep 2: 1.55
- low cell count flag: enough cells to score
